Data from PMC12098580.
These are yes or no findings as the source states them, for the method shown. Binding seen in cells or lysates may run through a third protein. Some results given as binding are weak or reduced against the parent protein; the word gives no strength.

The chains behind the UniProt entries cited, without tags or fusion partners.
UniProt Q14457: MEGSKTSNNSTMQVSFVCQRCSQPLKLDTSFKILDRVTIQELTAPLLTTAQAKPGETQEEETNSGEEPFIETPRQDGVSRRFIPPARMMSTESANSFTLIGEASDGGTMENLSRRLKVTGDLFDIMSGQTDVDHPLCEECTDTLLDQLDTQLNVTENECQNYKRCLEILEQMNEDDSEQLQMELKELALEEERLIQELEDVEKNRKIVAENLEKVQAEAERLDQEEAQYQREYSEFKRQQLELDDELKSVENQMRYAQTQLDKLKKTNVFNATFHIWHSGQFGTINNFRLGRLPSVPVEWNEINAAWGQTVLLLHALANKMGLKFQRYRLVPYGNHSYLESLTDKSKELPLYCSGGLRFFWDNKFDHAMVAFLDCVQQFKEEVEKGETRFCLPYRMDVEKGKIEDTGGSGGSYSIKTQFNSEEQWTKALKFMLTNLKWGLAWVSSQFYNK
UniProt P10415: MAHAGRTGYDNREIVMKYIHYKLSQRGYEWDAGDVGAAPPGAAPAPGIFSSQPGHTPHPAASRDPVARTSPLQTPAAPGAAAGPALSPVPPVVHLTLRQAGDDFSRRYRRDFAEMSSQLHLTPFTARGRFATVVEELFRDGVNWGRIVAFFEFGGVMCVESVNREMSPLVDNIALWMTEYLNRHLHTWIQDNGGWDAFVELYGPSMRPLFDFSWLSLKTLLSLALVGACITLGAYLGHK

Biological target: Beclin-1 (BECN1) (human (endogenous in SW620 and DLD1)) (UniProt Q14457)
Test: co-IP; endogenous proteins in lysates of SW620 and DLD1 cells; BECN1 antibody (IgG as control) on protein A/G magnetic beads, lysate incubated at 4 °C overnight, beads washed thrice, Western blot; cells untreated (Control) or treated with 80 nM CS-6

With “B-cell lymphoma-2 (Bcl2) (from UniProt P10415 1-239)” as the substance, how does the binding read?
The binding was “binds”.
